Test results reported in patent publication US20120220553A1, “THE USE OF LPA FOR ENCOURAGING PREGNANCY, AND FERTILITY AGENT” (JCR Pharmaceuticals Co., Ltd., priority 2009, published 2012).
Counter-ions that a name gives are not always drawn.

Test: Quantitative determination of lysophosphatidic acids in embryo culture supernatant by GC-SIM
Design: species or system human
Settings: pooled remaining culture supernatant of embryos of 45 patients; quantified against LPA-C18:1 standard; not detected in blank medium
Procedure: Of the culture supernatant of embryos of 45 patients who had received SEET therapy, remaining portions unused in the SEET therapy, were pooled and subjected for analysis. The volume of the remaining supernatant pooled was about 2.6 mL.
LPA contained in the culture was extracted by Bligh-Dyer method. Namely, to 2.59 mL of an embryo culture were added 0.5 mL of purified water, 2.5 mL of methanol, and 1.25 mL of chloroform, and the mixture was gently stirred for about 10 seconds, to which were further added 1.0 mL of 0.5 M HCl (prepared using saturated saline) and 2.5 mL of chloroform, and after stirring for one minute, the mixture was centrifuged (10 min, 3000 rpm, 4° C.) into separate layers, of which the lower, chloroform layer was collected. To the water layer was added 2.5 mL of chloroform, and after stirring and centrifugation in the above-described manner, the lower, chloroform layer was collected. These chloroform layers collected were combined and the solvent was removed under nitrogen gas flow. Unused BlastAssist System medium 2 was treated in the same manner as a blank.
To the residue which remained after removal of the solvent were added pyridine and BSTFA [N,O-bis(trimethylsilyl)trifluoroacetamide solution containing 1% chlorotrimethylsilane], 25 pL each, to suspend the residue, and reaction was allowed at 70° C. for one hour. The reaction mixture was subjected to GC-SIM analysis and GC-MS(Scan).
Separately, LPA-C18: 1 [oleyl-L-a-lysophosphatidic acid sodium salt (Sigma-Aldrich)] was dissolved in methanol at a concentration of 1 mg/mL to prepare a standard solution. The standard solution was diluted with unused BlastAssist System 2 (blank solution) as needed and extracted by Bligh-Dyer method, and then, after addition of pyridine and BSTFA, 25 μL each, to form a suspension, reaction was allowed at 70° C. for one hour, and then the reaction mixture was subjected to GC-SIM analysis and GS-MS(Scan) to determine the detection limit value and produce a standard curve for quantitative determination of LPA.
GC-SIM analysis was carried out using JMS-700V (JEOL Ltd.), a mass spectroscope (MS apparatus), and HP-6890 (Agilent Technologies Inc.), a gas chromatography apparatus (GC apparatus). The GC column employed was SPB-1 (SUPELCO). The column was kept at 150° C. for 1 minute, and the temperature was raised to 300° C. linearly at the rate of 10° C./min, and was kept at 300° C. for 25 minutes. Helium, a carrier gas, was supplied to the column at a linear velocity of 30 cm/sec. The temperature of the injection port was set at 250° C., and 1 μL of a sample was injected (Splitless injection). The sample was ionized by the electron impact (EI) method under the condition in which the temperature of the ionization chamber was set at 250° C., the ionization voltage at 70 eV, and the ionization current at 100 pA. The detector of the MS apparatus was the double-focusing type (BE type) and the acceleration voltage was 10 kV.
The concentration of each lysophosphatidic acid was measured based on the ratio of the area of the detected peak obtained by the analysis of the sample to that of the detected peak obtained by the analysis of the standard solution containing a known amount of LPA-C18:1. […]

Row | Compound | Concentration of lysophosphatidic acids contained in the sample
1 | CCCCCCCCCCCCCCCC(=O)OC[C@@H](O)COP(=O)(O)O [LPA-C16:0] | 7.0 nmol/mL
2 | CCCCCC/C=C\CCCCCCCC(=O)OC[C@@H](O)COP(=O)(O)O [LPA-C16:1] | 0.2 nmol/mL
3 | CCCCCCCCCCCCCCCCCC(=O)OC[C@@H](O)COP(=O)(O)O [LPA-C18:0] | 1.0 nmol/mL
4 | CCCCCCCC/C=C\CCCCCCCC(=O)OC[C@@H](O)COP(=O)(O)O [LPA-C18:1, oleyl-L-a-lysophosphatidic acid sodium salt] | 2.6 nmol/mL
5 | CCCCC/C=C\C/C=C\CCCCCCCC(=O)OC[C@@H](O)COP(=O)(O)O [LPA-C18:2] | 2.9 nmol/mL
